# Library screen at single concentrations

The values are deposited in ChEMBL (CHEMBL3988442, “University of Dundee, Small-Polar-MMV Screening Library” (2021)).

The filed quantity is “Percent Effect” (%). The record does not define 0% and 100%; most values in the screen are far below 50% and negative numbers occur (in some assays of this library far below -100). The compounds are a random part of those screened.

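Whole-parasite assay of Trypanosoma brucei over 72 hours; the read-out is not stated. Compounds at 30 µM. Higher reads as stronger inhibition (inferred: compounds with an IC50 in retests scored well above the rest). Values scatter widely below zero; nearly all retest evidence comes from the higher of the two concentrations used. Size under these conditions: about 64,000 compounds, about 940 of them at 50% or above in at least one test.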

| Compound | percent effect |
|---|---|
| `Cc1c(C(=O)NC(CN2CCCC2=O)c2ccccc2)cnn1C` (centres unmarked) | -49.45 |
| `CCOc1ccc(NC(=O)C2OC(c3cccs3)=NN2C(C)=O)cc1` (centres unmarked) | -35.49 |
| `Cc1cnn(CC2CCCN2C(=O)c2cnc3n[nH]c(C)c3c2)c1` (centres unmarked) | 12.43 |
| `COC(=O)CN(Cc1ccccc1C)C(=O)CCNC(=O)C(C)(C)C` | -13.29 |
| `CN(Cc1cccnc1)C1CC2(CCN(Cc3ccccn3)CC2)C1.O=C(O)C(F)(F)F.O=C(O)C(F)(F)F.O=C(O)C(F)(F)F` | -569.4 |
| `CCOCC1CN(C(=O)c2cscn2)Cc2cnn(CC3CC3)c21` (centres unmarked) | -19.67 |
| `Cc1cc2[nH]c(=O)oc2cc1S(=O)(=O)N1CCCC(N(C)C)CC1` (centres unmarked) | -21.98 |
| `CC(C)N1CCOCC2(CCN(c3cnccn3)CC2)C1.O=C(O)C(F)(F)F` | -51.29 |
| `CNc1ncccc1CN1CCN(C(C)=O)CC(C(N)=O)C1` (centres unmarked) | -19.76 |
| `O=C(O)C(F)(F)F.O=C(O)C(F)(F)F.c1cnc(NCc2ncn3c2CN(Cc2cccnc2)CCC3)nc1` | -28.84 |
| `C=Cc1ccc(C(=O)N2CCCC(Nc3ccc(F)c(F)c3)C2)cc1` (centres unmarked) | -25.36 |
| `O=C(NCC(Cc1cccc(F)c1)N1CCCC1=O)c1ccc(=O)[nH]n1` (centres unmarked) | -5.509 |
| `CCOC(=O)c1cccc(N2CCCC3(CCC(=O)N(C4CC4)C3)C2)n1` (centres unmarked) | -19.23 |
| `Cc1ccc(-c2cc(C(=O)NCCCc3csc(N)n3)[nH]n2)s1` | -13.56 |
| `COc1ccc(NC2(C(=O)N3CCn4cncc4C3)CCCC2)cc1` | -11.58 |
| `CN(C)c1nc2c(c(N3CCc4c(c(CO)nn4C)C3)n1)CCNC2` | 0.02841 |
| `CC(C)c1noc(CCCC(=O)N2CCN(Cc3ccncc3)CC2)n1` | -4.028 |
| `[H][C@@]12CCN[C@]1([H])C(=O)NC[C@H](CCC(=O)NCc1ccc(F)cc1)N2C` | -17.31 |
| `O=C(Cc1ccccn1)NCC1OCCc2cn(CC3CC3)nc21.O=C(O)C(F)(F)F` (centres unmarked) | -92.32 |
| `CC(CO)CSc1ncnc2[nH]ncc12` (centres unmarked) | 4.154 |
| `Cc1ccc(N2CCN(C(=O)CCc3n[nH]c(C)c3C)CC2=O)cc1` | -42.04 |
| `Cc1csc2c(C3CCN(C(=O)Cn4cncn4)CC3)nc(C)n12` | -4.709 |
| `CC(C)C(=O)N1CCCC2(C1)CN(c1nncs1)CCO2.O=C(O)C(F)(F)F` (centres unmarked) | -91.97 |
| `O=C(O)c1ccccc1C1CCN(Cc2ccc(-c3cc[nH]n3)o2)C1` (centres unmarked) | -16.57 |
| `COc1cccnc1NC(=O)COC1CCCC1` | -77.05 |
| `[H][C@]12CC[C@]([H])(CN(C(=O)c3ccncc3)C1)N(C(=O)CN(C)CCOC)C2` | 32.66 |
| `CC1=C(c2ccc(Cl)cc2)S(=O)(=O)N=C1N1CCc2ccccc21` | -2.045 |
| `CCc1nc(CN2CCCC(Nc3ncnc4ccsc34)C2)no1` (centres unmarked) | -29.22 |
| `COc1cc2nc3n(c(=O)c2cc1OC)CCN(C(=O)C(C)(C)C)CC3` | -39.2 |
| `N#CC1(C(=O)N2C[C@H](Nc3ccnc(N)n3)[C@@H](C3CC3)C2)CCOCC1` | -9.805 |
| `CCN(CCc1nc2cc(C)ccc2[nH]1)C(=O)[C@@H](N)CCSC` | -13.58 |
| `CCc1nnc2n1CCN(C(=O)CCc1ccc(C)c(Cl)c1)C2` | 14.54 |
| `Cc1ccc(CN2CCCC3(CCCC(=O)N3)C2)s1.O=C(O)C(F)(F)F` (centres unmarked) | -22.07 |
| `COc1cc(CCC(=O)NC2CC2)ccc1OCC(F)(F)F` | -37.05 |
| `COc1ccc(CC(=O)Nc2ccc3ncn(C(C)C)c(=O)c3c2)cc1` | -4.162 |
| `COc1ccc(N(c2ccc(C)cc2)c2ccc(C(=O)O)s2)cc1` | 31.46 |
| `O=C(CCn1cccn1)NCCOc1ncc(Cl)cc1Cl` | -11.36 |
| `CCn1ncc2c1C(COC)CN(Cc1ccc(F)cc1)C2.O=C(O)C(F)(F)F.O=C(O)C(F)(F)F` (centres unmarked) | -32.36 |
| `[H][C@]12CCN(C(=O)NC3CCCC3)CC[C@@]1([H])S(=O)(=O)N(C)C2` | -16.75 |
| `O=C(Nc1nncs1)N(Cc1cccc(F)c1)C1CC1` | -35.28 |
| `CN(C)C(=O)Cn1c2c(ccc1=O)CC(NCc1ccoc1)CC2.O=C(O)C(F)(F)F` (centres unmarked) | -61.56 |
| `COCC(C)NC(=O)c1sccc1-n1cnnn1` (centres unmarked) | -48.68 |
| `CSCC(C)(O)CNc1ccccn1` (centres unmarked) | -75.46 |
| `CS(=O)(=O)c1ccc(C(=O)N2CCCC(n3cccn3)C2)cc1` (centres unmarked) | -2.404 |
| `CC(C)N1CCC(CC(=O)N(C)CC(=O)c2ccc(O)cc2)CC1` | -74.22 |
| `Cc1cc(C(=O)N[C@H]2CC[C@@]3(CCC(=O)N3C)CC2)no1` | -24.18 |
| `N#Cc1ccccc1C(=O)N1C[C@H](CO)C[C@H](CN2CCCC2)C1` | 5.442 |
| `O=C(O)C(F)(F)F.[H][C@@]12CCN(Cc3ccc(OC)cc3)C[C@]1(C(=O)NCCOC)CCO2` | 7.509 |
| `CCc1ncc2c(n1)CN(Cc1cn3ccsc3n1)CC2` | -6.163 |
| `CNC(=O)c1cc2c(nc1NCC(C)C)CCN(S(=O)(=O)C1CC1)CC2` | -8.287 |
| `C[C@H](NC(=O)N1CCC(Cc2ccccc2)CC1)C(=O)O` | -41.76 |
| `CN1CCN(C2CCN(c3cnc4ccccc4n3)CC2)C1=O` | 1.822 |
| `Cc1ccc(CNC(=O)NCc2nccn2C)c(OC(C)(C)C)c1` | -10.65 |
| `Cc1ncnc2c1CCN(Cc1ccccn1)CC2.O=C(O)C(F)(F)F.O=C(O)C(F)(F)F` | -17.46 |
| `Cc1ncsc1CN(Cc1ccccc1)Cc1ccncc1` | 31.18 |
| `Cn1cc(-c2csc(N3CCSCC3)n2)cn1` | -20.97 |
| `CCOC(=O)[C@H]1[C@@H](O)C(=O)N(C)C12CCN(C(=O)c1ccccc1)CC2` | 30.92 |
| `CC(=O)Nc1ncc(S(=O)(=O)N2CCOCC2)s1` | -16.34 |
| `CCC(C)(O)CNc1ccc(S(=O)(=O)C(F)F)cc1` (centres unmarked) | -65.61 |
| `COc1ccc(OCCN(C)Cc2nc3c(cnn3C)c(=O)[nH]2)cc1` | -9.01 |
| `Cn1cccc1C(=O)NCc1cnc2n1CCN(C(=O)N1CCCC1)C2` | 16.37 |
| `CCC(CO)NCc1ccc(-c2ccc(Br)cc2)o1.Cl` (centres unmarked) | 14.02 |
| `CC(C)C[C@H](N)C(=O)N1CC2(CCNCC2)c2cc(Cl)ccc21.Cl.Cl` | 46.04 |
| `Cc1nn(C)c(Cl)c1C1CCCN1C(=O)c1cc(Cl)c[nH]1` (centres unmarked) | 9.802 |
| `COCCn1ccc(NC(=O)Nc2ccccn2)n1` | 33.14 |
| `CNC(=O)c1c(C)cccc1NCc1nnc(C2CC2)o1` | 2.7 |
| `Cc1cc(F)ccc1CNCCn1cccn1` | -20.37 |
| `Cc1cccc(N2CCN(CCC(=O)NCc3cnc(C)cn3)CC2)c1` | -20.89 |

Once more, the final 9:

{"compound": "COc1ccc(OCCN(C)Cc2nc3c(cnn3C)c(=O)[nH]2)cc1", "percent effect": -9.01}
{"compound": "Cn1cccc1C(=O)NCc1cnc2n1CCN(C(=O)N1CCCC1)C2", "percent effect": 16.37}
{"compound": "CCC(CO)NCc1ccc(-c2ccc(Br)cc2)o1.Cl", "stereo": "centres unmarked", "percent effect": 14.02}
{"compound": "CC(C)C[C@H](N)C(=O)N1CC2(CCNCC2)c2cc(Cl)ccc21.Cl.Cl", "percent effect": 46.04}
{"compound": "Cc1nn(C)c(Cl)c1C1CCCN1C(=O)c1cc(Cl)c[nH]1", "stereo": "centres unmarked", "percent effect": 9.802}
{"compound": "COCCn1ccc(NC(=O)Nc2ccccn2)n1", "percent effect": 33.14}
{"compound": "CNC(=O)c1c(C)cccc1NCc1nnc(C2CC2)o1", "percent effect": 2.7}
{"compound": "Cc1cc(F)ccc1CNCCn1cccn1", "percent effect": -20.37}
{"compound": "Cc1cccc(N2CCN(CCC(=O)NCc3cnc(C)cn3)CC2)c1", "percent effect": -20.89}